# Literature values, collected in patent publication US20140294942A1, “ANTIVIRAL PEPTIDES EFFECTIVE AGAINST HEPATITIS C VIRUS” (THE REGENTS OF THE UNIVERSITY OF CALIFORNIA, priority 2011, published 2014).
# Where “and” joins values, the source holds several entries; their conditions need not be identical. Equal values may be shown once. At least one compound was matched to its structure with a doubt left.
# System: HCV
# Conditions: reported in the literature; system not given; read-out: IC50 in Cell Culture; cited from earlier work
smiles,measurement,value
CCC[C@H](NC(=O)[C@@H]1[C@H]2CCC[C@H]2CN1C(=O)[C@@H](NC(=O)[C@@H](NC(=O)c1cnccn1)C1CCCCC1)C(C)(C)C)C(=O)C(=O)NC1CC1 [Telaprevir],IC50,354 nM and 280 nM
